Data on five molecules can be found in paper PMC5312387.

Chains of the proteins cited; added tags and fusions are not shown. Residues count along the entry.
UniProt P54764, residues 20-986: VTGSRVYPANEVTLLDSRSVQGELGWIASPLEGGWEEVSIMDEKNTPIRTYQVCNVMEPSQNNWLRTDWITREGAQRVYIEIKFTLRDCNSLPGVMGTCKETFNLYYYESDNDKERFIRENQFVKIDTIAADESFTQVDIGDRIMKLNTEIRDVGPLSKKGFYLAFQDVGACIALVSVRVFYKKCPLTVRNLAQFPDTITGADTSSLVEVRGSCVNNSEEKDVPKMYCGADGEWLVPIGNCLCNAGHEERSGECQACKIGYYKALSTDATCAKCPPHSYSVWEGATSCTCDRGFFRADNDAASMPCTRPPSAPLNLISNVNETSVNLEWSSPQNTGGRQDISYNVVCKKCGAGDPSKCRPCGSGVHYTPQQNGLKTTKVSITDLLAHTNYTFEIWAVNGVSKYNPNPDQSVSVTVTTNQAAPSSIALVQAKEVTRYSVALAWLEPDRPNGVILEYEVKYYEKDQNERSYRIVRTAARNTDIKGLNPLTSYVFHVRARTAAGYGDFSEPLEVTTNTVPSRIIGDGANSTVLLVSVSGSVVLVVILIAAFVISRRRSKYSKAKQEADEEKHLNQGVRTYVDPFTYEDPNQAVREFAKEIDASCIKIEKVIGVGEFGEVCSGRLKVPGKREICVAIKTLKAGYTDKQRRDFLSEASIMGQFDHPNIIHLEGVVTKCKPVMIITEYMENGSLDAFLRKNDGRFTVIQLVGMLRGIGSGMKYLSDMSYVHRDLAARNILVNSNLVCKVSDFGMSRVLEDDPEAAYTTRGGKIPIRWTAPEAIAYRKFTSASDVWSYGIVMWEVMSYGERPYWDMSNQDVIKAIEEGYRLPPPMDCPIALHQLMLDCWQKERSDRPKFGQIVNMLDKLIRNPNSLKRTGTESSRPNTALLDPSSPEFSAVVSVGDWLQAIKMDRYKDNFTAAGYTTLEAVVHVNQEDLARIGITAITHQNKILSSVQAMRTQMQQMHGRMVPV
UniProt P29317, residues 24-976: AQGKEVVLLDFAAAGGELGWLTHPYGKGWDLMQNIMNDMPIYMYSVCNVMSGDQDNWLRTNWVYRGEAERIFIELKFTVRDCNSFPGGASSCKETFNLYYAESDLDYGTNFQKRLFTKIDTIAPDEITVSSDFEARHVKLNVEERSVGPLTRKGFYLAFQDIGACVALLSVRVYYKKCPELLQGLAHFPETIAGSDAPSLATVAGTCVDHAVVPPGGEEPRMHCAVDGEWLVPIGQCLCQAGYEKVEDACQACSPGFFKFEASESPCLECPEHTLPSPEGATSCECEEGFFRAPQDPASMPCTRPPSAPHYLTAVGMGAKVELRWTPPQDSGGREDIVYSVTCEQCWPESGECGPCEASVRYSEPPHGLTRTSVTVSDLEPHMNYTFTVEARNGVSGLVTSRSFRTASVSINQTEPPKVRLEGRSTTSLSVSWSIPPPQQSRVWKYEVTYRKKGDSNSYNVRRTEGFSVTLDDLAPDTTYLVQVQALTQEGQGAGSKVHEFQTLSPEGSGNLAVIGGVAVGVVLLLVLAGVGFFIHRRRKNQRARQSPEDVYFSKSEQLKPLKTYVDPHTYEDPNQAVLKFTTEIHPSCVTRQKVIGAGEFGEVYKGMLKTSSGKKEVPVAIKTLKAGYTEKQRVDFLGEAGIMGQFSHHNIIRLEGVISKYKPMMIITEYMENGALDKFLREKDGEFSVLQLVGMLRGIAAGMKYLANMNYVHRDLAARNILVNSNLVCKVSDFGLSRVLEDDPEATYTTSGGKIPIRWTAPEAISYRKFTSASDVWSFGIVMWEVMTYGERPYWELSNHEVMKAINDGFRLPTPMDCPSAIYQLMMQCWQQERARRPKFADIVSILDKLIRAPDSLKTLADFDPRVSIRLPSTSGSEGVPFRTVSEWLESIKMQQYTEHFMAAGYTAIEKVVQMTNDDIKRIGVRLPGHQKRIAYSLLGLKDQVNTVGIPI
UniProt P54756, residues 25-1037: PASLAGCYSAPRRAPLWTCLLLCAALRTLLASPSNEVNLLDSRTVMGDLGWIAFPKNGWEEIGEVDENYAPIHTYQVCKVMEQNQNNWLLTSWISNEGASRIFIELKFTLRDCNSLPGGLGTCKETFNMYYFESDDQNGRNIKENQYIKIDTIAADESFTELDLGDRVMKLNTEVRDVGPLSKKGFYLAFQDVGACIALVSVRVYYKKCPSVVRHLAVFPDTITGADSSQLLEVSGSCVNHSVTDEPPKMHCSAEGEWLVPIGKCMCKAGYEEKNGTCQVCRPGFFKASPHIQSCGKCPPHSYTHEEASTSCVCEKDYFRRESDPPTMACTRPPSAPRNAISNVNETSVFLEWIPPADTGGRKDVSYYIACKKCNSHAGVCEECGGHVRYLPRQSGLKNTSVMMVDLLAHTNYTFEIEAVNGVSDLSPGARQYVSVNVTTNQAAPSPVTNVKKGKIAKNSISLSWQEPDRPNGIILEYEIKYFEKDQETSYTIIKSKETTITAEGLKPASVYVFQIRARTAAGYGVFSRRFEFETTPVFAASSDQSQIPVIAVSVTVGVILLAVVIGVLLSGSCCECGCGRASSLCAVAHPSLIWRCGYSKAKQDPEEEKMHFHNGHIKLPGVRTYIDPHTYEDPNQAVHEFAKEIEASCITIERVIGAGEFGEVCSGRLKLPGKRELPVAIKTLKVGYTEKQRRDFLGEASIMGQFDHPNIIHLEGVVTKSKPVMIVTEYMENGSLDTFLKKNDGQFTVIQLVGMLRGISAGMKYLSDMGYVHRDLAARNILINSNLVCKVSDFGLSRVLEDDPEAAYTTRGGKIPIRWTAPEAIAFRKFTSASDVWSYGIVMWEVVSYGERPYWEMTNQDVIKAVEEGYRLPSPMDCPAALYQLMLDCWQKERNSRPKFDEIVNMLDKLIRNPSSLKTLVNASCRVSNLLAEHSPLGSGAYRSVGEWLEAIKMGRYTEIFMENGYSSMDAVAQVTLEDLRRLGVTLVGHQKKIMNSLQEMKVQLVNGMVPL

Results are given in words; binding and its absence hold for the method and conditions named. Binding seen in cells or lysates may run through a third protein. Some entries that bind do so weakly or less than the wild type.

Assay [1] deals with T1, Ephrin B3 (human (endogenous in U-1810, H23 and U-1752)) (UniProt Q15768).
T1 sequence: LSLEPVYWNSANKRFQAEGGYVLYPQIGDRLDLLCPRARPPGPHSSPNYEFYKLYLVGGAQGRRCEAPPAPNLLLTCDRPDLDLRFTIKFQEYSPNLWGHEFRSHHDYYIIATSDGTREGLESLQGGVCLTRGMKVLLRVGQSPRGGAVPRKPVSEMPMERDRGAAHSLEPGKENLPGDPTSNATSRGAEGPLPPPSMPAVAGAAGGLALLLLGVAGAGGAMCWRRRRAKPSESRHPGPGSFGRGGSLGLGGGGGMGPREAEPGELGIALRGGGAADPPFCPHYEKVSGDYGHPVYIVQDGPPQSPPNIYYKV
The assay can be described thus: co-IP; Ephrin B3 immunoprecipitated from lysates of untreated U-1810, H23 and U-1752 cells (800 ug lysate; 25 mM Tris-HCl pH 7.4, 150 mM NaCl, 1 mM EDTA, 1% Nonidet P-40, 5% glycerol; protein G-Sepharose), western blot for Ephs.

Assay [2] deals with T1, Ephrin B3 (human (endogenous in U-1810, H23 and U-1752)). The assay can be described thus: proximity ligation; PLA in situ on fixed untreated U-1810, H23 and U-1752 cells with Ephrin B3 and EphA2 antibodies (Duolink II).
Assay [3] shares this target. The assay can be described thus: co-IP; Ephrin B3 pull-down of EphA2 from the same U-1810 cell lysate as used for the kinase immunoprecipitations; data not shown.
For assay [4] the target is unchanged. The assay can be described thus: co-IP; Ephrin B3 immunoprecipitated from lysates of untreated U-1810, H23 and U-1752 cells (800 ug lysate; 25 mM Tris-HCl pH 7.4, 150 mM NaCl, 1 mM EDTA, 1% Nonidet P-40, 5% glycerol; protein G-Sepharose), western blot for Ephs. The source holds these as a separate data set. Background: In western blotting, separated proteins are transferred to a membrane and probed.

Turning to “EphA4 (from UniProt P54764 20-986) (receptor)”, the binding entry in assay [1] is reported as “binds”.

As for “Ser897-phosphorylated EphA2 (from UniProt P29317 24-976) (receptor)”, the binding result in assay [1] is listed as “binds”.

For “EphA5 (from UniProt P54756 25-1037) (receptor)”, the binding result in assay [1] is reported as “binds”.

Regarding “EphA2 (from UniProt P29317 24-976) (receptor)”, the binding result in assay [2], in assay [3] and in assay [1] was “binds” throughout.

B1: EphA3 (receptor, UniProt P29320 21-983)
chain: ELIPQPSNEVNLLDSKTIQGELGWISYPSHGWEEISGVDEHYTPIRTYQVCNVMDHSQNNWLRTNWVPRNSAQKIYVELKFTLRDCNSIPLVLGTCKETFNLYYMESDDDHGVKFREHQFTKIDTIAADESFTQMDLGDRILKLNTEIREVGPVNKKGFYLAFQDVGACVALVSVRVYFKKCPFTVKNLAMFPDTVPMDSQSLVEVRGSCVNNSKEEDPPRMYCSTEGEWLVPIGKCSCNAGYEERGFMCQACRPGFYKALDGNMKCAKCPPHSSTQEDGSMNCRCENNYFRADKDPPSMACTRPPSSPRNVISNINETSVILDWSWPLDTGGRKDVTFNIICKKCGWNIKQCEPCSPNVRFLPRQFGLTNTTVTVTDLLAHTNYTFEIDAVNGVSELSSPPRQFAAVSITTNQAAPSPVLTIKKDRTSRNSISLSWQEPEHPNGIILDYEVKYYEKQEQETSYTILRARGTNVTISSLKPDTIYVFQIRARTAAGYGTNSRKFEFETSPDSFSISGESSQVVMIAISAAVAIILLTVVIYVLIGRFCGYKSKHGADEKRLHFGNGHLKLPGLRTYVDPHTYEDPTQAVHEFAKELDATNISIDKVVGAGEFGEVCSGRLKLPSKKEISVAIKTLKVGYTEKQRRDFLGEASIMGQFDHPNIIRLEGVVTKSKPVMIVTEYMENGSLDSFLRKHDAQFTVIQLVGMLRGIASGMKYLSDMGYVHRDLAARNILINSNLVCKVSDFGLSRVLEDDPEAAYTTRGGKIPIRWTSPEAIAYRKFTSASDVWSYGIVLWEVMSYGERPYWEMSNQDVIKAVDEGYRLPPPMDCPAALYQLMLDCWQKDRNNRPKFEQIVSILDKLIRNPGSLKIITSAAARPSNLLLDQSNVDITTFRTTGDWLNGVWTAHCKEIFTGVEYSSCDTIAKISTDDMKKVGVTVVGPQKKIISSIKALETQSKNGPVPV
Turning to B1, the binding result in assay [4] was “binds”.
